Test results as given in the supplement of paper PMC10849652.
The list shows a part of the results.

Amino acid sequences for entries named in this document (tags omitted). A change or cut given only in a name is not applied to a line headed by its entry.
UniProt P49720: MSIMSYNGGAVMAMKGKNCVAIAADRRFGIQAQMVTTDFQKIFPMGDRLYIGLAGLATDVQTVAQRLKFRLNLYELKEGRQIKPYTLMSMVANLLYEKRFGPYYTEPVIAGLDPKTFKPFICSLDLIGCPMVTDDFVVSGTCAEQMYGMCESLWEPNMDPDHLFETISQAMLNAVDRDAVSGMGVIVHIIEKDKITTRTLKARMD
UniProt P61289: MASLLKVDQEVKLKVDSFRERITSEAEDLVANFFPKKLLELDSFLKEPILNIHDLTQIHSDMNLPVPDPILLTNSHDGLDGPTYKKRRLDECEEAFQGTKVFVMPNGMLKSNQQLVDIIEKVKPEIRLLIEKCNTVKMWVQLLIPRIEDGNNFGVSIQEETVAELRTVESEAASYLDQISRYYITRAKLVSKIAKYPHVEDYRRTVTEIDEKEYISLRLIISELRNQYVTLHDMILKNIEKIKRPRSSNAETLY
UniProt P62195, whole entry, looked up: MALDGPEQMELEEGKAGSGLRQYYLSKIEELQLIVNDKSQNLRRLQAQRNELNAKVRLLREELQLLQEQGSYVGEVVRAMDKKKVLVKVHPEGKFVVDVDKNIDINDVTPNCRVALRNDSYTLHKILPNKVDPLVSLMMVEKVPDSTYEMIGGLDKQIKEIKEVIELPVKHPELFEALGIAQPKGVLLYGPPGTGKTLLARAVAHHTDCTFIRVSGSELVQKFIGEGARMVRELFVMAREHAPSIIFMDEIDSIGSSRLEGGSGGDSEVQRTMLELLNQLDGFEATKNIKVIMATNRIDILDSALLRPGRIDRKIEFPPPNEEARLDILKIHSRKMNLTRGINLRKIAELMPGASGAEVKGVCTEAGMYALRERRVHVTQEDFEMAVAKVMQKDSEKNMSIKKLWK
UniProt O75475: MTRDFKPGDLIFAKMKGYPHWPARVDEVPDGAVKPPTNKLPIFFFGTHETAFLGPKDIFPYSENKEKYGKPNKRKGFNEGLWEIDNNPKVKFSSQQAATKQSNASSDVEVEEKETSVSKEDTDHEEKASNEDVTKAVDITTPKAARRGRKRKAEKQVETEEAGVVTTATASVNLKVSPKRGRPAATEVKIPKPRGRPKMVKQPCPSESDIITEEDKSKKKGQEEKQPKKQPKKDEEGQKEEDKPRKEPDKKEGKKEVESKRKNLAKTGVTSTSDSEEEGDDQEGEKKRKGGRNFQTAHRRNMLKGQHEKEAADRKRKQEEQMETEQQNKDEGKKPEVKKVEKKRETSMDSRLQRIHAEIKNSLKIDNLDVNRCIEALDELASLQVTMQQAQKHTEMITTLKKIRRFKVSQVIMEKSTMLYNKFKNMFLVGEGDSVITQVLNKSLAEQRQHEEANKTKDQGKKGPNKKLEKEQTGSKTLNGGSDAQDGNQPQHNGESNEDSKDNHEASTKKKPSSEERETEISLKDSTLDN
UniProt P23219, whole entry, looked up: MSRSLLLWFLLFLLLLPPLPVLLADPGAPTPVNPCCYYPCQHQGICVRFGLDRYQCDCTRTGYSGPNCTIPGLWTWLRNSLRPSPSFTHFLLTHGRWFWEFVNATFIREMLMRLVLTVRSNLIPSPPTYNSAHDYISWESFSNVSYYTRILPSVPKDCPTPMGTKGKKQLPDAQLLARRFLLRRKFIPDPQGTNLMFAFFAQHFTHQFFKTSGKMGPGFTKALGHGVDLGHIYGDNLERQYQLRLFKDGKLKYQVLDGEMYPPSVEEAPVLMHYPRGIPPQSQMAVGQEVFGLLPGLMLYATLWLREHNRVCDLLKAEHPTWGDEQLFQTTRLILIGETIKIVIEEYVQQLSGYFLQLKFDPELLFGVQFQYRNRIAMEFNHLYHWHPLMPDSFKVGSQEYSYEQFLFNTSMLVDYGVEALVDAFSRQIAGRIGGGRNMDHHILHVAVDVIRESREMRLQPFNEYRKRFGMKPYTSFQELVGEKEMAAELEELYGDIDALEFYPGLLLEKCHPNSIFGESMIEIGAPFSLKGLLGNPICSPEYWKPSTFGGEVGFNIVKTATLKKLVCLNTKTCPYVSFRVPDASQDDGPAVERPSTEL
UniProt O75832: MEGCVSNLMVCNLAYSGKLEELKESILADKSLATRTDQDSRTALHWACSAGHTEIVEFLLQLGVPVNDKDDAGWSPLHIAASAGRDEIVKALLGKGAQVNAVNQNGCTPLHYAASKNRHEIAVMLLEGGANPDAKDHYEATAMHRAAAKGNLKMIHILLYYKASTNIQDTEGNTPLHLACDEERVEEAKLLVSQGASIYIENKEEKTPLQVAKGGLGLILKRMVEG
UniProt Q5JSZ5: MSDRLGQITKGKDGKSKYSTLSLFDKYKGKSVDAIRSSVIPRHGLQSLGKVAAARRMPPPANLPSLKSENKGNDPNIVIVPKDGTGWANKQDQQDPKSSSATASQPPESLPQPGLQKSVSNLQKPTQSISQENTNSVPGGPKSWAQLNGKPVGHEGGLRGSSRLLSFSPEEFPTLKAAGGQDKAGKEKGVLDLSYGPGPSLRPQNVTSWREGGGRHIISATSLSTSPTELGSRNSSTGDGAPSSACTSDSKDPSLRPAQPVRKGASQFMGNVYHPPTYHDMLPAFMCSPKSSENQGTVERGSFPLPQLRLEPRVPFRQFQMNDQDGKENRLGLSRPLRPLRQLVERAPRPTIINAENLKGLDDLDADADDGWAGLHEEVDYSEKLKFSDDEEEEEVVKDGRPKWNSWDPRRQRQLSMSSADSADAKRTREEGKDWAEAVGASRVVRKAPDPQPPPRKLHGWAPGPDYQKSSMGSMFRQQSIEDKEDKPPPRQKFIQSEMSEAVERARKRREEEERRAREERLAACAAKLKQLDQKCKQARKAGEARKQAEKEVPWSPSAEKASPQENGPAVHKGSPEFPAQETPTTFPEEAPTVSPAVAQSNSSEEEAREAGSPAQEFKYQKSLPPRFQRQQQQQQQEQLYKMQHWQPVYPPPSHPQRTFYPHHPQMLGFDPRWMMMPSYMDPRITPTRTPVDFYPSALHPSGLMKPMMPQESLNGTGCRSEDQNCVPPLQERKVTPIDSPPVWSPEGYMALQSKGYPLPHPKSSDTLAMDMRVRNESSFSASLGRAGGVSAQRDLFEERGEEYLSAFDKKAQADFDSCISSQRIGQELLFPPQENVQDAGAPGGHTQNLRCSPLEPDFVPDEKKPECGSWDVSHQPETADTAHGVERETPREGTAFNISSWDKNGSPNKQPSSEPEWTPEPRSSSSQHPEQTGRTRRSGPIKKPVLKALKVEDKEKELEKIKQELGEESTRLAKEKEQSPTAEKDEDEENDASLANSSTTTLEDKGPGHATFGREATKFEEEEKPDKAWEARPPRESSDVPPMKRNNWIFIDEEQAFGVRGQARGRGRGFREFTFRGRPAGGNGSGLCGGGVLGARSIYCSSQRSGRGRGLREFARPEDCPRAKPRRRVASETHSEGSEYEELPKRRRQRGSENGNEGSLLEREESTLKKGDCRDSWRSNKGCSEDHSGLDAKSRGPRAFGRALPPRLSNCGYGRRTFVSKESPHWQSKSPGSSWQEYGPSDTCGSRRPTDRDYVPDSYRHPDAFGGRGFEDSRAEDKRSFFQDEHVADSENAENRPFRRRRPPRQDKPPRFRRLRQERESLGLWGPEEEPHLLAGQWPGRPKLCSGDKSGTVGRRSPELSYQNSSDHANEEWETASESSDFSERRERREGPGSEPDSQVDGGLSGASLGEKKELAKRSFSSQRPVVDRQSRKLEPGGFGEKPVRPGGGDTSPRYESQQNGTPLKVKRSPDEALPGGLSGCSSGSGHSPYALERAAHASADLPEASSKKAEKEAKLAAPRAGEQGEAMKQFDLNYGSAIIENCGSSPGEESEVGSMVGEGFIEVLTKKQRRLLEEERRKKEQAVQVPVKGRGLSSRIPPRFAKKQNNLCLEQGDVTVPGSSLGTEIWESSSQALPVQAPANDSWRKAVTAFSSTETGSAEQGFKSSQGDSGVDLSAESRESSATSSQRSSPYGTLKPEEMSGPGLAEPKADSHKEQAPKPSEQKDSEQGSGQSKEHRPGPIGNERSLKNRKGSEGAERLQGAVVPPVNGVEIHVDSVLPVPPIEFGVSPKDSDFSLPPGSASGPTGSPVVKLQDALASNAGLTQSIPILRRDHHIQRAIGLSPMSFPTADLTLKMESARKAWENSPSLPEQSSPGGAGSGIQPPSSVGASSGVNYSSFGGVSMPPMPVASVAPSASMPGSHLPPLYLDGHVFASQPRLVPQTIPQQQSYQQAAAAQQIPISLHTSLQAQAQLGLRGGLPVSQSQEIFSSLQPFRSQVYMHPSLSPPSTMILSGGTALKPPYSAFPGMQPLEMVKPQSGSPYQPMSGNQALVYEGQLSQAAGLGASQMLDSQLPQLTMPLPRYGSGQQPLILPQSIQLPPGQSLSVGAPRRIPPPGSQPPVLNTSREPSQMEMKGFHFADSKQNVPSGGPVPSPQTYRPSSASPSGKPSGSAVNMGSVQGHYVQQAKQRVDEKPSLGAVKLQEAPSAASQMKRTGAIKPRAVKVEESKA
UniProt Q96PZ0: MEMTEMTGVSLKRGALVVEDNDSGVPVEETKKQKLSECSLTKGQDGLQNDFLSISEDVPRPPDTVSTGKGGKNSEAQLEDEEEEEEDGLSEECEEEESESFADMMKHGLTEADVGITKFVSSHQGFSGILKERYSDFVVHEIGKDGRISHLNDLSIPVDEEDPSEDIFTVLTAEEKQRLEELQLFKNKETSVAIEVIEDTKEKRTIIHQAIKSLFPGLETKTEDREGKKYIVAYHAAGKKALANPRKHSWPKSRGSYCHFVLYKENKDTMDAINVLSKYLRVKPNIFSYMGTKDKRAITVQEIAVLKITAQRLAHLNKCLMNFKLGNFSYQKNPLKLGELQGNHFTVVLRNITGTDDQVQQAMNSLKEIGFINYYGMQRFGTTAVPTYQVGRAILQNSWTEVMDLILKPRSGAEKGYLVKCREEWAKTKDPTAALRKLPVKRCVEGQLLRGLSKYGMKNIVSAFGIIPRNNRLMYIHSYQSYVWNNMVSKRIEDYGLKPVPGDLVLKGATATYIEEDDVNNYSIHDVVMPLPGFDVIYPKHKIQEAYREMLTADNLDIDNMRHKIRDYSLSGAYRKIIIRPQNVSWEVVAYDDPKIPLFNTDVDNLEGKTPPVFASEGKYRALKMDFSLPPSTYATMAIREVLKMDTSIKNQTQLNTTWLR
UniProt Q9Y617: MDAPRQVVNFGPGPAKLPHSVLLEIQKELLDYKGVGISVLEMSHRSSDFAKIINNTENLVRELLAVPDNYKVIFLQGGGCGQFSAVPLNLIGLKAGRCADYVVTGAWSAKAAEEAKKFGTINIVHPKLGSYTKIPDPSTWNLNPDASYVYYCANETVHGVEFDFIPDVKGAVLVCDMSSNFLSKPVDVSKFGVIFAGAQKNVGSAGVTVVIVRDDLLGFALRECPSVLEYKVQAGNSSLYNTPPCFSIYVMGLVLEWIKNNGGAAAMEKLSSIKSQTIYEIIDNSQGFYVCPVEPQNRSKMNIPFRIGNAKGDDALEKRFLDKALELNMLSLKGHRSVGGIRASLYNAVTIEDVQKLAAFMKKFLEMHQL
UniProt P28070, whole entry, looked up: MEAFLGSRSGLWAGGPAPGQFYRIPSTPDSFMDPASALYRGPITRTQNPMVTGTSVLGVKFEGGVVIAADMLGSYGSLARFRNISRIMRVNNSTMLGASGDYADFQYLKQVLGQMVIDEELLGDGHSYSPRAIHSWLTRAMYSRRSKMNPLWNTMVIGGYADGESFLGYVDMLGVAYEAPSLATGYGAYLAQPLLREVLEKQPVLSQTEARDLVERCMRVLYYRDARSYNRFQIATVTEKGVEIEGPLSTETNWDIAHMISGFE

Key:
Assay in all cases: log2 fold change, soluble protein after heating vs DMSO (PISA); higher = thermal stabilisation; K562 lysate, 10 uM; active = over 0.2 and 3.5 SD of the protein, either way, in both replicates (recomputed)
[1] = compound: C1=CC=C(C=C1)[C@H](COC2=CC3=C(C=C2)NC(=O)N3)NC(=O)C4=CC=CN(C4=O)CC5=CC(=C(C=C5)F)F
Procedure, shortened: (§1)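 Log-two fold change in thermal stability relative to solvent controls is reported from duplicates. For each sample, crude K562 extract from dounce-homogenised pellets in PBS pH 7.4 with 1 mM MgCl2, at 1 mg/mL protein, was treated with 10 μM compound for 30 min. Aliquots heated for 3 min across 48°C-58°C were pooled, brought to 0.5% NP-40 at 4°C and cleared at 21,000xg for 90 min. The supernatant was quantified by TMTpro 16plex LC-MS/MS with channel sums equalised.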

[2] = compound: CC1=C(SC2=C1C(=N[C@H](C3=NN=C(N32)C)CC(=O)N)C4=CC=C(C=C4)Cl)C
Procedure, shortened: as §1

[3] = compound: CC1=C2C(=CC=C1)N=C(N(C2=O)C3=CC=CC=C3C)CN4C=NC5=C(N=CN=C54)N
Procedure, shortened: as §1

[4] = compound: Cc1sc2c(c1C)C(c1ccc(Cl)cc1)=N[C@@H](CC(=O)OC(C)(C)C)c1nnc(C)n1-2
Procedure, shortened: as §1

[5] = compound: c1ccc([C@@H]2C[C@H]2NC2CCNCC2)cc1
Procedure, shortened: as §1

Measured: log2 fold change

PSMB3 (UniProt P49720)
inactive: [1] 0.031 | [2] -0.009 | [3] -0.006 | [4] -0.012 | [5] -0.005

PSME3 isoform 2 (UniProt P61289)
inactive: [1] 0.018 | [2] -0.017 | [3] -0.003 | [4] -0.044 | [5] 0.016

PSMC5 (UniProt P62195)
inactive: [1] -0.006 | [2] 0.016 | [3] 0.008 | [4] 0.003 | [5] 0.075

PRPS1 (UniProt B1ALA9)
inactive: [1] 0.027 | [2] 0.016 | [3] -0.011 | [4] 0.007 | [5] -0.027

PSMB2, A0A087WVV1
inactive: [1] -0.124 | [2] -0.034 | [3] 0.064 | [5] -0.347

PSIP1 (UniProt O75475)
inactive: [1] 0.008 | [2] -0.002 | [3] 0.007 | [4] -0.037 | [5] -0.052

PTGS1 isoform 6 (UniProt P23219)
inactive: [1] -0.007 | [2] -0.035 | [3] 0.077 | [4] -0.026 | [5] -0.11

PSMD10 (UniProt O75832)
inactive: [1] -0.029 | [2] 0.017 | [3] -0.001 | [4] -0.008 | [5] -0.035

PRRC2B (UniProt Q5JSZ5)
inactive: [1] 0.054 | [2] -0.04 | [3] 0.122 | [4] 0.054 | [5] -0.007

PUS7 isoform 2 (UniProt Q96PZ0)
inactive: [1] 0.007 | [2] 0.02 | [3] 0.004 | [4] -0.053 | [5] 0.017

PSAT1 (UniProt Q9Y617)
inactive: [1] 0.011 | [2] -0.011 | [3] 0.028 | [4] 0.009 | [5] -0.018

PSMB4 (UniProt P28070)
inactive: [1] 0.012 | [2] 0 | [3] 0.008 | [4] -0.023 | [5] -0.011
